Assay results from the supplement of paper PMC10849652.
This is one part of the list.

Chains of the proteins cited; added tags and fusions are not shown. Lines headed by an entry give the natural chain unless they say otherwise; changes in a name come on top.
UniProt P22061: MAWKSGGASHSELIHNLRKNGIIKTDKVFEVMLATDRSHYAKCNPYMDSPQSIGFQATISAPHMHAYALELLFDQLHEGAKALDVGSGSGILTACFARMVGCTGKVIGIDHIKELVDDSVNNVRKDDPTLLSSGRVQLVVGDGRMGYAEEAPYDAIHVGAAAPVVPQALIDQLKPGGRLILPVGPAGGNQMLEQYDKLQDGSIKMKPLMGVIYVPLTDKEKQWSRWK
UniProt O96011: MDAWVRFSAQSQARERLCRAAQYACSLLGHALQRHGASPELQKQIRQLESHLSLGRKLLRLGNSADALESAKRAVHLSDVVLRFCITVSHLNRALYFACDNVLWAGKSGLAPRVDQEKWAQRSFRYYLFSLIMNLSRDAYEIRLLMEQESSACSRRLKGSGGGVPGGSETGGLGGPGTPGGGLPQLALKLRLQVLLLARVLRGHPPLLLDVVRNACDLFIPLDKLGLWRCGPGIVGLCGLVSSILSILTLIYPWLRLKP
UniProt H7BZJ3: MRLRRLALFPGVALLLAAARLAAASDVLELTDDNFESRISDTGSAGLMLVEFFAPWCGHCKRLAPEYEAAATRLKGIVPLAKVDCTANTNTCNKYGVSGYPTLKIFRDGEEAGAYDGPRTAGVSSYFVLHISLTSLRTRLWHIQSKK
UniProt P30086: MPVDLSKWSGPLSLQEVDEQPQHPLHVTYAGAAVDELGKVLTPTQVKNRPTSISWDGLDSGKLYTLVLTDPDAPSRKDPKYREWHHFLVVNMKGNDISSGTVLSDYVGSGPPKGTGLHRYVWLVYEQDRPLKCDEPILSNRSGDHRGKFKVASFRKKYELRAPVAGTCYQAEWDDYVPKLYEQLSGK
UniProt P12004, whole entry, looked up: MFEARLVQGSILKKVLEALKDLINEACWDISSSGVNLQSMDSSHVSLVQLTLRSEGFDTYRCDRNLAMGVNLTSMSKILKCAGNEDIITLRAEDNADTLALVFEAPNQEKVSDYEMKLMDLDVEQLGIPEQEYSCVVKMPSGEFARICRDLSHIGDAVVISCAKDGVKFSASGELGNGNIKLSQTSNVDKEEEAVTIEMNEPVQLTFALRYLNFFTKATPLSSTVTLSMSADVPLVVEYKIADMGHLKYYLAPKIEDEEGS
UniProt Q15365, whole entry, looked up: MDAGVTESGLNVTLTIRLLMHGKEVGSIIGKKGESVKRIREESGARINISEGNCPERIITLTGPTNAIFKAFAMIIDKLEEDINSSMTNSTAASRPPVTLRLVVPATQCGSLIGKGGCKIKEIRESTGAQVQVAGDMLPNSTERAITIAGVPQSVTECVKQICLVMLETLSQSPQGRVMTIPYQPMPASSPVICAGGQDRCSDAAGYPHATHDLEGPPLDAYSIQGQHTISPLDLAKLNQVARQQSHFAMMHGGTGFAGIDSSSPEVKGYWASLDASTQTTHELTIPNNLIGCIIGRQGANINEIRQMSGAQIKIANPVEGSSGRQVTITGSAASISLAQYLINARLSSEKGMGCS
UniProt P57721, whole entry, looked up: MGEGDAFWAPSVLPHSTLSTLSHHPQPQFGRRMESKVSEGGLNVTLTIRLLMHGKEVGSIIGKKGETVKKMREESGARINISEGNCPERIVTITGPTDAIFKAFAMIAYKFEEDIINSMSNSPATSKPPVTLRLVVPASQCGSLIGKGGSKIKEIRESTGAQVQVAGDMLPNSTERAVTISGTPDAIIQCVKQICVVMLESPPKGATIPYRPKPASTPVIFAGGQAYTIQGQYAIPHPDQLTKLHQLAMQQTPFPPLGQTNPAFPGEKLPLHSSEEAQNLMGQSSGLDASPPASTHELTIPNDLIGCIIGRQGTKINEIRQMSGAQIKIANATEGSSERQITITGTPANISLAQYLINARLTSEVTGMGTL
UniProt Q9NUG6, whole entry, looked up: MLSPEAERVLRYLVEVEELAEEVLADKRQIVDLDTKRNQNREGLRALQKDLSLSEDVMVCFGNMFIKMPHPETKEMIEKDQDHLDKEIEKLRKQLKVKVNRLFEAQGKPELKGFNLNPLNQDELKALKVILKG
UniProt O43924: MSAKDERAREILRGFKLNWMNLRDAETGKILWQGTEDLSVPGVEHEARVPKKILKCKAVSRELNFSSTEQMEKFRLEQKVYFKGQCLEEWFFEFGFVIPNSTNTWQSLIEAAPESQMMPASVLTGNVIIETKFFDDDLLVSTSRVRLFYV
UniProt O00628: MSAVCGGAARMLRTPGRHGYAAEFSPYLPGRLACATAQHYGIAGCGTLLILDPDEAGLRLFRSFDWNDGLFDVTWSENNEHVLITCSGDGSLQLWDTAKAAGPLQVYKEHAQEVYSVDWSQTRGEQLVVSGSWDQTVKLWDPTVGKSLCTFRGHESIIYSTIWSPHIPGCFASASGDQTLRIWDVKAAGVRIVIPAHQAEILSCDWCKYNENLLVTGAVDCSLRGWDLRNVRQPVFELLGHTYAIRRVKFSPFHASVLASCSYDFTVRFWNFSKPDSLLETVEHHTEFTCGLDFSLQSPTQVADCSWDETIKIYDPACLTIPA
UniProt O00764: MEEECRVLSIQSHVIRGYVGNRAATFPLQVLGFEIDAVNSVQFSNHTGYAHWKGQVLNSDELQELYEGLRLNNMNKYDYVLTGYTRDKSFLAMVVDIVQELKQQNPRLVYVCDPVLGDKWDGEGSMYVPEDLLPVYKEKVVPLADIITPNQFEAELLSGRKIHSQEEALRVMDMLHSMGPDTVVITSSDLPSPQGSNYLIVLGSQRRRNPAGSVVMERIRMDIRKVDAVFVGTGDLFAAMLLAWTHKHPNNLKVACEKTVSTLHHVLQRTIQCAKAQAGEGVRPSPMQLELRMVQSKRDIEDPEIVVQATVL

Experiments:
Assay in all cases: log2 fold change, soluble protein after heating vs DMSO (PISA); higher = thermal stabilisation; K562 lysate, 10 uM; active = over 0.2 and 3.5 SD of the protein, either way, in both replicates (recomputed)
lapatinib = compound: CS(=O)(=O)CCNCc1ccc(-c2ccc3ncnc(Nc4ccc(OCc5cccc(F)c5)c(Cl)c4)c3c2)o1 [lapatinib]
Summary of the method: (§1)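 The values are log-two fold changes in thermal stability compared with solvent controls and come from duplicates. They were obtained by TMTpro 16plex LC-MS/MS, with channel sums equalised, on the supernatant after 21,000xg for 90 min. That supernatant came from crude K562 extract at 1 mg/mL protein treated with 10 μM compound for 30 min, heated for 3 min across 48°C-58°C, pooled and brought to 0.5% NP-40 at 4°C.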

pictilisib = compound: CS(=O)(=O)N1CCN(Cc2cc3nc(-c4cccc5[nH]ncc45)nc(N4CCOCC4)c3s2)CC1 [pictilisib]
Summary of the method: as §1

crizotinib = compound: C[C@@H](Oc1cc(-c2cnn(C3CCNCC3)c2)cnc1N)c1c(Cl)ccc(F)c1Cl [crizotinib]
Summary of the method: as §1

[1] = compound: C[C@H](C1=CC=C(C=C1)C(=O)NC2=C3C=CNC3=NC=C2)N
Summary of the method: as §1

duvelisib = compound: C[C@H](Nc1ncnc2nc[nH]c12)c1cc2cccc(Cl)c2c(=O)n1-c1ccccc1 [duvelisib]
Summary of the method: as §1

gandotinib = compound: Cc1cc(Nc2cc(CN3CCOCC3)c3nc(C)c(Cc4ccc(Cl)cc4F)n3n2)n[nH]1 [gandotinib]
Summary of the method: as §1

tozasertib = compound: Cc1cc(Nc2cc(N3CCN(C)CC3)nc(Sc3ccc(NC(=O)C4CC4)cc3)n2)n[nH]1 [tozasertib]
Summary of the method: as §1

doramapimod = compound: Cc1ccc(-n2nc(C(C)(C)C)cc2NC(=O)Nc2ccc(OCCN3CCOCC3)c3ccccc23)cc1 [doramapimod]
Summary of the method: as §1

bafetinib = compound: Cc1ccc(NC(=O)c2ccc(CN3CC[C@H](N(C)C)C3)c(C(F)(F)F)c2)cc1Nc1nccc(-c2cncnc2)n1 [bafetinib]
Summary of the method: as §1

[2] = compound: Cc1cccc(CC(=O)N2CCc3c2ccc(-c2cn(C)c4ncnc(N)c24)c3F)n1
Summary of the method: as §1

nilotinib = compound: Cc1cn(-c2cc(NC(=O)c3ccc(C)c(Nc4nccc(-c5cccnc5)n4)c3)cc(C(F)(F)F)c2)cn1 [nilotinib]
Summary of the method: as §1

[3] = compound: Cc1nc(Nc2n[nH]c3c2CN(C(=O)N[C@H](CN(C)C)c2ccccc2)C3(C)C)c2sccc2n1
Summary of the method: as §1

dasatinib = compound: Cc1nc(Nc2ncc(C(=O)Nc3c(C)cccc3Cl)s2)cc(N2CCN(CCO)CC2)n1 [dasatinib]
Summary of the method: as §1

[4] = compound: Cc1ncc(-c2ccnc(Nc3ccc(S(C)(=O)=O)cc3)n2)n1C(C)C
Summary of the method: as §1

[5] = compound: Cn1cc(-c2ccc3c(c2)CCN3C(=O)Cc2cccc(C(F)(F)F)c2)c2c(N)ncnc21
Summary of the method: as §1

quisinostat = compound: Cn1cc(CNCC2CCN(c3ncc(C(=O)NO)cn3)CC2)c2ccccc21 [quisinostat]
Summary of the method: as §1

tipifarnib = compound: Cn1cncc1[C@@](N)(c1ccc(Cl)cc1)c1ccc2c(c1)c(-c1cccc(Cl)c1)cc(=O)n2C [tipifarnib]
Summary of the method: as §1

[6] = compound: NC(=O)Nc1cc(-c2cccc(F)c2)sc1C(=O)N[C@H]1CCCNC1
Summary of the method: as §1

[7] = compound: NC(=O)c1cnc(N[C@@H]2CCCC[C@@H]2N)nc1Nc1cccc(-n2nccn2)c1
Summary of the method: as §1

[8] = compound: NC1(c2ccc(-c3nc4ccn5c(=O)[nH]nc5c4cc3-c3ccccc3)cc2)CCC1
Summary of the method: as §1

Measured: log2 fold change

PCMT1 isoform 2 (UniProt P22061)
inactive: lapatinib 0.006 | pictilisib 0.001 | crizotinib 0.074 | [1] 0.087 | duvelisib -0.016 | gandotinib -0.06 | tozasertib 0.033 | doramapimod -0.029 | bafetinib 0.013 | [2] -0.079 | nilotinib 0.04 | [3] -0.043 | dasatinib 0.062 | [4] -0.016 | [5] -0.014 | quisinostat 0.125 | tipifarnib 0.042 | [6] 0 | [7] -0.001 | [8] 0.033

PEX11B (UniProt O96011)
inactive: lapatinib 0.026 | pictilisib 0 | crizotinib -0.086 | [1] -0.232 | duvelisib 0.003 | gandotinib -0.11 | tozasertib -0.027 | doramapimod 0.026 | bafetinib -0.063 | [2] 0.658 | nilotinib -0.098 | [3] 0.026 | dasatinib 0.09 | [4] 0.049 | [5] -0.017 | quisinostat -0.02 | tipifarnib -0.011 | [6] 0.031 | [7] -0.006 | [8] -0.009

PDIA3 (UniProt H7BZJ3)
inactive: lapatinib -0.007 | pictilisib 0.108 | crizotinib 0.009 | [1] -0.115 | duvelisib 0.091 | gandotinib -0.01 | tozasertib 0.046 | doramapimod 0.005 | bafetinib -0.05 | [2] 0.2 | nilotinib -0.031 | [3] 0.046 | dasatinib 0.024 | [4] 0.18 | [5] -0.122 | quisinostat 0.004 | tipifarnib -0.021 | [6] -0.085 | [7] 0.013 | [8] 0.097

PEBP1 (UniProt P30086)
inactive: lapatinib 0.01 | pictilisib -0.023 | crizotinib 0.033 | [1] -0.03 | duvelisib -0.005 | gandotinib 0.015 | tozasertib 0.004 | doramapimod -0.025 | bafetinib 0.029 | [2] -0.032 | nilotinib 0.009 | [3] -0.012 | dasatinib 0.004 | [4] -0.002 | [5] -0.053 | quisinostat 0.037 | tipifarnib 0.015 | [6] -0.034 | [7] -0.009 | [8] 0.02

PCNA (UniProt P12004)
inactive: lapatinib -0.003 | pictilisib -0.005 | crizotinib 0.023 | [1] -0.063 | duvelisib 0.003 | gandotinib 0.026 | tozasertib 0.027 | doramapimod -0.003 | bafetinib 0.03 | [2] 0.084 | nilotinib -0.008 | [3] -0.03 | dasatinib 0.009 | [4] -0.012 | [5] 0.017 | quisinostat 0.036 | tipifarnib 0.022 | [6] -0.03 | [7] -0.008 | [8] 0.016

PCBP1 (UniProt Q15365)
inactive: lapatinib -0.003 | pictilisib -0.003 | crizotinib 0.02 | [1] -0.01 | duvelisib -0.015 | gandotinib 0.06 | tozasertib 0.025 | doramapimod 0.008 | bafetinib -0.007 | [2] 0.003 | nilotinib 0.009 | [3] -0.048 | dasatinib -0.005 | [4] -0.24 | [5] -0.021 | quisinostat 0.008 | tipifarnib -0.216 | [6] -0.017 | [7] -0.013 | [8] 0.006

PCBP3 (UniProt P57721)
inactive: lapatinib -0.031 | pictilisib -0.035 | crizotinib 0.002 | [1] -0.067 | duvelisib -0.014 | gandotinib 0.028 | tozasertib 0.001 | doramapimod 0.014 | bafetinib -0.03 | [2] 0.026 | nilotinib 0.015 | [3] -0.022 | dasatinib -0.005 | [4] 0.018 | [5] -0.025 | quisinostat -0.004 | tipifarnib 0 | [6] -0.023 | [7] -0.014 | [8] 0.012

PDRG1 (UniProt Q9NUG6)
inactive: lapatinib 0.001 | pictilisib -0.033 | crizotinib -0.015 | [1] -0.063 | duvelisib 0.002 | gandotinib 0.044 | tozasertib -0.03 | doramapimod 0.03 | bafetinib 0.019 | [2] 0.035 | nilotinib -0.018 | [3] -0.015 | dasatinib 0.023 | [4] 0.052 | [5] 0.046 | quisinostat -0.038 | tipifarnib 0.141 | [6] -0.015 | [7] -0.003 | [8] 0.003

PDE6D (UniProt O43924)
inactive: lapatinib 0.016 | pictilisib -0.24 | [1] -0.035 | duvelisib -0.024 | gandotinib -0.008 | tozasertib 0.055 | bafetinib 0.014 | [2] 0.059 | nilotinib 0.023 | [3] 0.082 | dasatinib 0.024 | [4] -0.029 | [5] 0.041 | tipifarnib -0.018 | [7] -0.047 | [8] 0.007

PEX7 (UniProt O00628)
inactive: lapatinib -0.008 | pictilisib -0.124 | [1] 0.028 | duvelisib -0.119 | gandotinib -0.041 | tozasertib 0.095 | bafetinib 0.047 | [2] 0.012 | dasatinib -0.12 | [5] -0.047 | [7] 0.031

PARP9 (UniProt Q8IXQ6)
inactive: lapatinib -0.05 | pictilisib -0.023 | crizotinib -0.224 | duvelisib -0.01 | tozasertib -0.052 | doramapimod 0.043 | bafetinib 0.224 | dasatinib 0.11 | [5] -0.21 | quisinostat -0.343 | [6] 0.096 | [7] 0.046 | [8] 0

PDXK (UniProt O00764)
inactive: lapatinib -0.026 | pictilisib 0.014 | crizotinib 0.004 | [1] -0.134 | duvelisib 0.041 | gandotinib 0.109 | tozasertib -0.014 | doramapimod -0.072 | bafetinib 0.046 | [2] 0.083 | nilotinib 0.123 | [3] -0.031 | dasatinib 0.005 | [4] 0.055 | [5] -0.003 | quisinostat -0.03 | tipifarnib 0.012 | [6] -0.008 | [7] -0.008 | [8] -0.023
